PubChem BioAssay AID686943 | Drosophila RNAi Screening Center, 2013
Screen: 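Search across the genome for regulators of signalling from receptor tyrosine kinase to ERK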 (primary screen). System: Drosophila S2R+ haemocyte-like cells expressing YFP-tagged ERK (Rolled). Knock-down reagent: long dsRNA against Drosophila genes. Challenge: insulin stimulation versus unstimulated cells; dose and duration not given. Measured: 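Antibody staining for doubly phosphorylated ERK divided by ERK-YFP signal, as plate z-scores, in insulin-treated and untreated cells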. Scale: replicate 1, z-score of dpERK with insulin and replicate 2, z-score of dpERK with insulin: higher = more active ERK per ERK-YFP after insulin; replicate 1, z-score of dpERK under basal conditions: higher = more basal active ERK per ERK-YFP; replicate 1, z-score of ERK-YFP with insulin: higher = more YFP-tagged ERK signal.
The screen tested about 23,000 reagents; shown is a random part of those that have a named target and a result. 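Extra replicates exist only for a retested subset of genes; insulin dose and duration not given; both raised and lowered dpERK matter.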 Reagents against one gene are numbered here. No sequences are given here. The record does not give: the amount of reagent, the time to read-out.

no.	target	reagent no.	replicate 1, z-score of dpERK with insulin	replicate 2, z-score of dpERK with insulin	replicate 1, z-score of dpERK under basal conditions	replicate 1, z-score of ERK-YFP with insulin
1	Gcat (GeneID 39333)	1	-0.05	-0.3	-0.3	0.31
2	CG15701 (GeneID 36801)	1	-0.92	-0.17	-0.01	-0.06
3	BtbVII (GeneID 38376)	1	-2.21	0.14	0.05	0.47
4	BtbVII (GeneID 38376)	2	-0.82	2.48	-0.26	1.26
5	p (GeneID 41025)	1	0.2	0.98	-0.01	0.17
6	CG31921 (GeneID 319027)	1	-0.06	0.08	1.04	0.32
7	Pld3 (GeneID 35384)	1	0.21	-0.04	-0.17	-0.28
8	olf413 (GeneID 40453)	1	-0.82	-1.58	-0.5	-0.12
9	olf413 (GeneID 40453)	2	0.96	0.66	0.21	-0.47
10	olf413 (GeneID 40453)	3	0.56	0.51	0.85	0.38
11	olf413 (GeneID 40453)	4	0.15	-0.54	0.68	0.36
12	Or67d (GeneID 39191)	1	0.51	0.76	-1.08	-2.58
13	CG32447 (GeneID 40412)	1	0.67	0.57	0.68	0.14
14	CG32447 (GeneID 40412)	2	0.53	0.77	0.65	0.79
15	CG30116 (GeneID 37126)	1	0.16	-0.14	0.69	0.07
16	CG30116 (GeneID 37126)	2	0.29	-0.01	0.23	0.57
17	CG14062 (GeneID 43389)	1	-0.33	-0.04	0.34	0.55
18	CG12986 (GeneID 32759)	1	0.21	0.06	-0.08	0.03
19	Sap130 (GeneID 39455)	1	-0.01	1.34	-1.79	1.99
20	Osi14 (GeneID 40770)	1	-0.1	-0.46		-0.45
21	kmr (GeneID 5740131)	1	1.17	0.57	0.08	0.67
22	kmr (GeneID 5740131)	2	-0.74	-0.86	0.8	-0.63
23	kmr (GeneID 5740131)	3	-0.06	-0.72	0.31	0.17
24	kmr (GeneID 5740131)	4	0.34	-0.73	0.03	-0.17
